# What was measured:
# Assay type in all cases: cell-based
# MCF7 (breast) = assay: In vitro cytotoxic activity (MTT) assay, MCF7; details: Homo sapiens; MCF7 (breast) cells, exposed for 96 hours; read-out: IC50, concentration eliciting 50% inhibition of cell proliferation
# Description: (§1) Compounds 1-15 were screened for their in vitro cytotoxic activity utilizing a 3-(4,5-dimethyl-thiazol-2-yl)-2,5-diphenyltetrazolium bromide (MTT) assay against selected cancer human cell lines consisting of PC3 (prostate), HCT116 (colon), A375 (melanoma), H1299 (lung), MIAPaCa-2 (pancreas), HL60 (leukemia), MCF7 (breast), MDA-MB-231 (breast) (T. Mosmann, J. Immunol. Meth., 1983, 65, 55-63). The cells were cultured at 37° C. in RMPI1640 medium supplemented with 10% fetal bovine serum, 50 IU/mL penicillin, and 50 μg/mL streptomycin in a 5% CO2 incubator. All cells were sub-cultured 3 times/week by trypsinisation. Viable cells were seeded and allowed to adhere for 12 h before a test drug was added in 96-well plates at an initial density of 1.0×10^5 cells/mL. Tumor cell lines were separately exposed to various concentrations of the tested compounds followed by incubation at a temperature of 37° C. during 96 hours inside a medium of fresh RMPI 1640. Cells were subsequently incubated at 37° C. using MTT at 0.5 mg/mL during 4 hours. After removal of supernatant, formazan crystals were dissolved in isopropanol and the optical density was measured at 570 nm. CX-4945 was used as a positive control.
# A375 (melanoma) = assay: In vitro cytotoxic activity (MTT) assay, A375; details: Homo sapiens, A-375; A375 (melanoma) cells, exposed for 96 hours; read-out: IC50, concentration eliciting 50% inhibition of cell proliferation
# Description: as §1
# HCT116 (colon) = assay: In vitro cytotoxic activity (MTT) assay, HCT116; details: Homo sapiens, HCT-116; HCT116 (colon) cells, exposed for 96 hours; read-out: IC50, concentration eliciting 50% inhibition of cell proliferation
# Description: as §1
# MIAPaCa-2 (pancreas) = assay: In vitro cytotoxic activity (MTT) assay, MIAPaCa-2; details: Homo sapiens, MIA PaCa-2; MIAPaCa-2 (pancreas) cells, exposed for 96 hours; read-out: IC50, concentration eliciting 50% inhibition of cell proliferation
# Description: as §1
# HL60 (leukemia) = assay: In vitro cytotoxic activity (MTT) assay, HL60; details: Homo sapiens, HL-60; HL60 (leukemia) cells, exposed for 96 hours; read-out: IC50, concentration eliciting 50% inhibition of cell proliferation
# Description: as §1
# PC3 (prostate) = assay: In vitro cytotoxic activity (MTT) assay, PC3; details: Homo sapiens, Prostate cell; PC3 (prostate) cells, exposed for 96 hours; read-out: IC50, concentration eliciting 50% inhibition of cell proliferation
# Description: as §1
# H1299 (lung) = assay: In vitro cytotoxic activity (MTT) assay, H1299; details: Homo sapiens, NCI-H1299; H1299 (lung) cells, exposed for 96 hours; read-out: IC50, concentration eliciting 50% inhibition of cell proliferation
# Description: as §1
# MDA-MB-231 (breast) = assay: In vitro cytotoxic activity (MTT) assay, MDA-MB-231; details: Homo sapiens; MDA-MB-231 (breast) cells, exposed for 96 hours; read-out: IC50, concentration eliciting 50% inhibition of cell proliferation
# Description: as §1
structure (smiles),measurement,setting,value
"O=C(O)c1ccc2c(c1)nc(Nc1cccc(Cl)c1)c1ccncc12 [CX-4945, reference compound]",IC50,MCF7 (breast),9.1 µM
same,IC50,A375 (melanoma),4.1 µM
same,IC50,HCT116 (colon),2300 nM
same,IC50,MIAPaCa-2 (pancreas),1000 nM
same,IC50,HL60 (leukemia),3.7 µM
same,IC50,PC3 (prostate),2000 nM
same,IC50,H1299 (lung),2300 nM
same,IC50,MDA-MB-231 (breast),6.2 µM

# From US11964976B1, “Substituted pyrido[3′,4′:4,5]pyrrolo[3,2-c][1,6]naphthyridines as CK2 inhibitors” (KING FAISAL UNIVERSITY, priority 2023, dated 2024)
